Test results from publication PMC11392244, “Characterization of a unique catechol-O-methyltransferase as a molecular drug target in parasitic filarial nematodes” (PLOS Neglected Tropical Diseases, 2024).
Which two values form the index is not stated here.

Tested on: D. immitis microfilariae
Test: In vitro efficacy against live D. immitis microfilariae (motility, completely immotile %)
Format: cell-based, Dirofilaria immitis

Molecule | EC50 fold higher than ivermectin | further results
Ivermectin [reference compound] |  | Selectivity Index (SI): 2.1
CO[C@@H]1/C=C/O[C@@]2(C)Oc3c(C)c(O)c4c(c3C2=O)C(=N[C@@H]2CC[C@@H](O)O[C@H]2C)C=C(NC(=O)/C(C)=C\C(=O)[C@@H]2C[C@@H]2[C@H](O)[C@@H](C)[C@@H](O)[C@@H](C)[C@H](OC(C)=O)[C@@H]1C)C4=O [NSC177383, tolypomycin-Y] |  | EC50 fold lower than ivermectin: about 1.5 fold
CO[C@@H]1/C=C\O[C@]2(C)Oc3c(C)c(O)c4c(O)c(c(CN(C)C)c(O)c4c3C2=O)NC(=O)/C(C)=C\C=C[C@@H](C)[C@@H](O)[C@H](C)[C@@H](O)[C@H](C)[C@H](OC(C)=O)[C@@H]1C [NSC145612] | 1.8 fold | 
CO[C@@]12[C@H](COC(N)=O)C3=C(C(=O)C(C)=C(N)C3=O)N1C[C@H]1[C@@H]2N1C (stereo partly shown) [NSC56410] | 1.8 fold | 
